Source: PubChem BioAssay AID1439 (NMMLSC, 2008)
The campaign covered roughly 220,000 compounds. About 770 (0.35%) were called active. This list was built around the results that the source calls inconclusive (neither active nor inactive); the mix of calls is not that of the screen. Rule as the data show it: active = binding response below about 49% or above about 150%; inconclusive = no clear call, values can overlap the other calls; inactive = in between.

Chains of the proteins cited; added tags and fusions are not shown.
UniProt P09471, whole entry, looked up: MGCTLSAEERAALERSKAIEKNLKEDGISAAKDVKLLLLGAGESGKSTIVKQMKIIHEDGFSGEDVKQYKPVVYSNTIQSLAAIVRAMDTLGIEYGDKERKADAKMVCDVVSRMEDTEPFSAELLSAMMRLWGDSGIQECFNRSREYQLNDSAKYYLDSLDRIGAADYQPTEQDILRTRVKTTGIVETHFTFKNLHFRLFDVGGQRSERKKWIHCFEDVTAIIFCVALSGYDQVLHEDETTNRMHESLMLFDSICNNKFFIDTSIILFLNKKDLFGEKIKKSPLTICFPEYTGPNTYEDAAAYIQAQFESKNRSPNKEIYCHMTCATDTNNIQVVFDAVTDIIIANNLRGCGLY

biological target: Guanine nucleotide-binding protein G(o) subunit alpha (Homo sapiens) (UniProt P09471); experiment: RGS7-Galphao binding modulators, primary screen, biochemical, multiplexed bead flow cytometry (AID 1439); settings: at 10 µM, actives lie on both sides;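 also: fluorescent Galphao held in activated GDP-AlF4 state binding bead-coupled RGS7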

| Structure (SMILES) | binding response (% of control) |
| --- | --- |
| N#CCCN(C(=O)COc1ccc(C#N)cc1)c1ccc(F)cc1 | inconclusive: 108% |
| Cc1ccc(/C=C/C(=O)N2CCCC(C(N)=O)C2)o1 (centres undefined) | inconclusive: 72.6% |
| O=C(NCc1ccc2c(c1)OCO2)c1ccc(CSCc2ccccc2Cl)o1 | active: 48.3% |
| CCOc1ccc(NC(=O)N2CCC(n3nnc4ccccc43)CC2)cc1 | inconclusive: 106% |
| Cc1ccc(S(=O)(=O)N2CCOC2CNC(=O)C(=O)NCc2ccncc2)cc1 (centres undefined) | inconclusive: 67.8% |
| Cc1ccc(/C=N/n2c(-c3ccncc3)n[nH]c2=S)o1 | inconclusive: 108% |
| CC1CC2=C(C(=O)O1)C(c1ccc(Cl)cc1)Nc1ccccc1N2 (centres undefined) | inactive: 103% |
| O=C(C(=S)N1CCOCC1)c1c[nH]c2ccccc12 | inconclusive: 73.8% |
| O=C(NOC(=O)c1ccccc1)c1ccccc1 | inconclusive: 58.8% |
| CCOC(=O)NC(=O)COC(=O)c1cccc2ccccc12 | inconclusive: 113% |
| COc1ccc(Cl)cc1NC(=O)CN(C)CC(=O)Nc1ccc(C)cc1Br | inactive: 104% |
| CN(C)c1ccc(P(=O)(OC2CCCCC2)C(O)c2ccncc2)cc1 (centres undefined) | inconclusive: 127% |
| Cc1ccc(N2CCN(C(=O)NC3CCCCC3)CC2C)cc1 (centres undefined) | inconclusive: 113% |
| Nc1ccc(Cl)c[n+]1Cc1cccc2cccnc12 | inconclusive: 129% |
| CC(C)(C)S(=O)(=O)Cc1nc(-c2ccc(Cl)c(Cl)c2)cs1 | inconclusive: -26.3% |
| CCc1cc(-c2[nH]ncc2-c2nc3ccccc3n2C)c(O)cc1O | inconclusive: 95.3% |
| NC(=O)NC(CC(=O)NCCc1ccc(S(N)(=O)=O)cc1)c1ccccc1Cl (centres undefined) | inconclusive: 59% |
| CCN(CC)c1ccc(CNCc2cccs2)cc1 | inconclusive: 74.1% |
| C#CCSc1n[nH]c(=O)n1-c1cccc(C(F)(F)F)c1 | inconclusive: 101% |
| Cc1cc(C)c(C)c(S(=O)(=O)N2CCN(C(=S)NCC3CCCO3)CC2)c1C (centres undefined) | inconclusive: 112% |
| O=c1oc2c(CN3CCN(CCO)CC3)c(O)ccc2cc1-c1ccccn1 | inconclusive: 101% |
| CC(=O)NCCc1nc2ccccc2n1Cc1cc(C)ccc1C | inconclusive: 99.6% |
| Cc1cc(C(=O)N2CCC(C(=O)O)CC2)c(C)o1 | inconclusive: 101% |
| CCN(CC)c1ccc(S(=O)(=O)N2CCOCC2)cc1NC(=O)CN1CCN(Cc2ccccc2)CC1 | inconclusive: 110% |

| Structure (SMILES) | binding response (% of control) |
| --- | --- |
| Cc1nn(-c2ccccc2)c(C)c1NC(=O)c1cccs1 | inactive: 88.1% |
| CC(C)=C(NC(=O)c1ccccc1)C(=O)Nc1ccc(C(=O)O)cc1 | inconclusive: 113% |
| CCCN1C(=O)c2cccc3c(N4CCCCC4)ccc(c23)C1=O | inactive: 89.6% |
| COc1cccc(C2Oc3ccccc3C3CC(c4cccs4)=NN32)c1 (centres undefined) | inconclusive: 249% |
| O=C(COc1ccc(S(=O)(=O)Nc2ccccc2)cc1)N1CCOCC1 | inactive: 92.5% |
| CCC(=O)NC1=C(Cl)C(=O)C(NC(=O)CC)=C(Cl)C1=O | inconclusive: -30.6% |
| N#Cc1c(N)oc(-c2ccccc2)c1-c1ccccc1 | inactive: 98% |
| CCOC(=O)c1cc[nH]c1CC(=O)NC | inconclusive: 18.9% |
| C=C1CCC(C)C(C)(CCC2=CCOC2=O)C/C=C\C=C/1C(=O)O (centres undefined) | inconclusive: 126% |
| COc1ccc(-c2csc(COC(=O)C(C)(C)C)n2)cc1 | inconclusive: -77.4% |
| CC(=O)Nc1cccc(/C(C)=N/NS(=O)(=O)c2ccccc2)c1 | inconclusive: 68.5% |
| N=C1S/C(=C\c2cccc3ccccc23)C(=O)N1c1ccc(F)cc1 | inactive: 98.7% |
| COc1ccc(N/C=C/C(=O)c2ccc(OC)c(OC)c2)cc1 | inconclusive: 24.8% |
| COC(=O)c1[nH]c2cccc(OC)c2c1NC(=O)CCN1CCSCC1 | inconclusive: 75.5% |
| C/C(=N\NS(=O)(=O)c1ccc(C)c([N+](=O)[O-])c1)c1cccs1 | inconclusive: 88.4% |
| O=C(NCCc1ccccc1)c1nc(-c2cccs2)no1 | inconclusive: 75% |
| CCN(CC)c1ccc(CNc2nc3ccccc3n2C)cc1 | inconclusive: 85.6% |
| C=CCSc1nnc(CNC(=O)c2ccccc2C)n1C(C)C | inconclusive: 81.2% |
| Cc1nc2c(-c3ccc(F)cc3)c(C)nn2c(C)c1CCC(=O)Nc1ccccc1 | inconclusive: 83.8% |
| COc1ccc2c(c1)C(=O)N(c1ccccc1C)C(=O)C2(C)C | inactive: 96.9% |
| CCOC(=O)c1ccc(-c2ccc(/C=N/NC(=O)Cc3nnc(N)s3)o2)cc1 | inconclusive: 77.3% |
| CCCCN(C)C(=S)Nc1ccsc1C(=O)OC | inconclusive: 94.4% |
| Cc1cc(NC(=O)c2ccccc2-c2ccccc2)ccc1Br | inactive: 110% |
| C/C(=N\NC(=O)NC1CCCCC1)c1ccc(OC(F)F)cc1OC(F)F | inconclusive: 108% |

| Structure (SMILES) | binding response (% of control) |
| --- | --- |
| Cc1c(Cl)cn2c(=O)cc(CN(C)Cc3nc4ccccc4c(=O)[nH]3)nc2c1Cl | inconclusive: 88.8% |
| NN1C(=O)/C(=C\c2ccco2)SC1=S | inconclusive: 92.8% |
| O=C(NC1CCCCC1)c1cc(F)cc2c1OCOC2 | inconclusive: -56.1% |
| CCc1c(C)sc(NC(=O)C2CCCO2)c1C#N (centres undefined) | inactive: 76.2% |
| CC(C)C[C@H](NC(=O)CCn1nnc2ccccc2c1=O)C(=O)O | inconclusive: 72.5% |
| CC12CCC(C(=O)N/N=C/c3ccc(O)cc3)(OC1=O)C2(C)C (centres undefined) | inconclusive: 87% |
| CCOC(=O)C1=NOC2C3CC(C12)C1C(=O)N(CCc2ccc(OC)c(OC)c2)C(=O)C31 (centres undefined) | inconclusive: 99% |
| CCCCCC1CCC(c2ccc(/C(N)=N/O)cc2)CC1 (centres undefined) | inconclusive: 154% |
| CCOC(=O)C(C)Sc1nc(=O)n2cccc(C)c2n1 (centres undefined) | inconclusive: 112% |
| COc1ccccc1C(=O)Oc1cc(N)n(S(=O)(=O)c2ccccc2)n1 | inconclusive: 101% |
| Cc1cccc2cc(/C=C/C(=O)c3ccco3)c(Cl)nc12 | inconclusive: 106% |
| CC(C1CC1)N(Cc1ccccc1)C(=O)NC(=O)c1cccc(F)c1 (centres undefined) | inconclusive: 109% |
| COc1cc2c(cc1OC)C(NC(=O)C(F)(F)F)CNC2=O (centres undefined) | inconclusive: 108% |
| CC(=O)/C(=N/Nc1ccccc1[N+](=O)[O-])N1CCCc2ccccc21 | inconclusive: 101% |
| COC(=O)CC1C(=O)NCCN1C(=O)CSc1nc2ccccc2c(=O)n1CC(C)C (centres undefined) | inconclusive: 102% |
| O=P(OC1CCCCC1)(OC1CCCCC1)C(O)c1cccnc1 (centres undefined) | inconclusive: 160% |
| COC(=O)c1cc(NC(=O)c2nn(C)c(=O)c3ccccc23)cc(C(=O)OC)c1 | inconclusive: 86.8% |
| COC(=O)C1=C(C)NC(=S)N(C(C)=O)C1c1ccc(OC)c(OC)c1 (centres undefined) | inactive: 101% |
| CCCSc1nc2c(cnn2-c2ccccc2)c(=O)n1N | inconclusive: 75.7% |
| O=C(Nc1ccccc1)Nc1sccc1-c1nc2ccccc2s1 | inconclusive: 108% |
| C1CN(c2nc3nonc3nc2N2C[C@H]3CC[C@H]2C3)CCS1 | inconclusive: 96.1% |
| CC(=O)Nc1cccc(Oc2ncccc2[N+](=O)[O-])c1 | inconclusive: 104% |
| CSc1nnc(C(C)(C)C)c(=O)n1/N=C/c1ccccc1 | inconclusive: 102% |
| Nn1c(SCc2ccccc2)nnc1C1CCCCC1 | inconclusive: 82.4% |

Nothing new here: 2 of the compounds above.

| Structure (SMILES) | binding response (% of control) |
| --- | --- |
| O=C(NCCc1ccccc1)c1nc(-c2cccs2)no1 | inconclusive: 75% |
| CCN(CC)c1ccc(CNc2nc3ccccc3n2C)cc1 | inconclusive: 85.6% |

Later entries

| Structure (SMILES) | binding response (% of control) |
| --- | --- |
| CCOC(=O)/C(=N\Nc1ccc(Br)cc1)N1CC(C)OC(C)C1 (centres undefined) | inconclusive: 111% |
| CCNC(=O)c1ccccc1-c1nc(-c2ccccc2OC)no1 | inconclusive: 130% |
| CCCC(=O)NNC(=O)c1c(O)c2ccccc2[nH]c1=O | inactive: 104% |
| O=c1c2[nH]c3cccc(Cl)c3c2ncn1CC1CCCO1 (centres undefined) | inconclusive: 86.2% |
| Nc1nc(SCc2ccc(Cl)cc2Cl)nc2nc3c(cc12)CCCC3 | inactive: 95.6% |
| NC(N)=N/N=C/c1ccc(Cl)c(Cl)c1 | inconclusive: 167% |
| Cc1cc(OCC(=O)N(Cc2ccco2)C2CCS(=O)(=O)C2)ccc1Cl (centres undefined) | inconclusive: 103% |
| O=C(NNC(=O)c1ccc2nonc2c1)Nc1ccc(Cl)cc1 | inconclusive: 89.4% |
| O=c1c2cc(N3CCOCC3)ccc2[nH]c(=S)n1CCCN1CCN(c2ccccc2F)CC1 | inactive: 109% |
| CSC1=NCCN1C(=O)c1ccc2ccccc2c1 | inconclusive: 114% |
| Cc1ccc(S(=O)(=O)NNC(=O)Nc2ccc(Cl)c(Cl)c2)cc1 | inconclusive: 75.1% |
| COc1cc(N=Nc2ccccc2C(=O)O)ccc1O | inconclusive: 80% |
| Cn1nc(C(=O)Nc2ccc(S(=O)(=O)NCc3ccco3)cc2)c2ccccc2c1=O | inconclusive: 109% |
| Cc1ccc(F)c(NC(=O)/C(C#N)=C(\O)c2ccc(C(C)(C)C)cc2)c1 | inconclusive: 91.7% |
| C(=N\Nc1ccc2nncn2n1)/c1ccco1 | inconclusive: 94.2% |
| CC(=O)c1ccc(N2CCN(C(=S)NCCCN(C)C)CC2)cc1 | inconclusive: 89.5% |
| Cc1ccc(NC(=O)CC2SC(=Nc3ccc(O)cc3)NC2=O)cc1 (centres undefined) | inactive: 101% |
| COc1cccc(/C=N/NC(=O)Cn2nc([N+](=O)[O-])cc2C)c1 | inconclusive: 12.3% |
| Cc1cc(NC(=O)CN(C)S(=O)(=O)c2cccc(Cl)c2)no1 | inconclusive: 94.4% |
| CN(NC(=O)c1ccc(Cl)cc1Cl)C1=NS(=O)(=O)c2ccccc21 | inconclusive: 107% |
| Cc1ccccc1C(=O)Nc1nnc(-c2ccncc2)o1 | inconclusive: 53.3% |
| CNC(=O)CN1C(=O)NC(Cc2c[nH]c3ccccc23)C1=O (centres undefined) | inconclusive: 82.5% |

Compounds shown so far that contain an aryl methoxy group (13):

| Structure (SMILES) | binding response (% of control) |
| --- | --- |
| COc1ccc(Cl)cc1NC(=O)CN(C)CC(=O)Nc1ccc(C)cc1Br | inactive: 104% |
| COc1cccc(C2Oc3ccccc3C3CC(c4cccs4)=NN32)c1 (centres undefined) | inconclusive: 249% |
| COc1ccc(-c2csc(COC(=O)C(C)(C)C)n2)cc1 | inconclusive: -77.4% |
| COc1ccc(N/C=C/C(=O)c2ccc(OC)c(OC)c2)cc1 | inconclusive: 24.8% |
| COC(=O)c1[nH]c2cccc(OC)c2c1NC(=O)CCN1CCSCC1 | inconclusive: 75.5% |
| COc1ccc2c(c1)C(=O)N(c1ccccc1C)C(=O)C2(C)C | inactive: 96.9% |
| CCOC(=O)C1=NOC2C3CC(C12)C1C(=O)N(CCc2ccc(OC)c(OC)c2)C(=O)C31 (centres undefined) | inconclusive: 99% |
| COc1ccccc1C(=O)Oc1cc(N)n(S(=O)(=O)c2ccccc2)n1 | inconclusive: 101% |
| COc1cc2c(cc1OC)C(NC(=O)C(F)(F)F)CNC2=O (centres undefined) | inconclusive: 108% |
| COC(=O)C1=C(C)NC(=S)N(C(C)=O)C1c1ccc(OC)c(OC)c1 (centres undefined) | inactive: 101% |
| CCNC(=O)c1ccccc1-c1nc(-c2ccccc2OC)no1 | inconclusive: 130% |
| COc1cc(N=Nc2ccccc2C(=O)O)ccc1O | inconclusive: 80% |
| COc1cccc(/C=N/NC(=O)Cn2nc([N+](=O)[O-])cc2C)c1 | inconclusive: 12.3% |
